Numbering of substitutions follows the chain as printed. No constants are given. Whether binding was seen depends on the method and setting. Some results given as binding are weak or reduced against the parent protein; the word gives no strength.

Amino acid sequences for entries named in this document (tags omitted). A change or cut given only in a name is not applied to a line headed by its entry.
UniProt Q96HL8: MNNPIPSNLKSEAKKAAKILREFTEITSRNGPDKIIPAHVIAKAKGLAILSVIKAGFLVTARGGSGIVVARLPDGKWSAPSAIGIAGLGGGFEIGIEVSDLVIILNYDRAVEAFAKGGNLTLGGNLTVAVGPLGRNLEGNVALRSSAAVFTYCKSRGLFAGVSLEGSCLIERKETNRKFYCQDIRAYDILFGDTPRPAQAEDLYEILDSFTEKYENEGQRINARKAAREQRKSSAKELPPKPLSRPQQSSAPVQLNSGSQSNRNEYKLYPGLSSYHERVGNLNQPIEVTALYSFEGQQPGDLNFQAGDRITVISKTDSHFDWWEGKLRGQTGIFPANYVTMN

From patent US20260109755A1 come the findings set out here.

This assay deals with SH3 domain-containing YSC84-like 1 (SH3YL1), antigen of the antibodies (human) (UniProt Q96HL8). The experiment in a line: peptide microarray of SH3YL1 peptides.

B1: A3 antibody (human IgG1) (antibody, V domains shown)
VH: EVQLLESGGGLVQPGGSLRLSCAASGFTFSNYAMSWVRQAPGKGLEWVSVISSDNSSTYYADSVKGRYTISRDNSKNTLYLQMNSLRAEDTAVYYCARVWRHFDYWGQGTLVTVSS
VL: QSVLTQPPSASGTPGQRVTISCSGSSSNIGSNNVNWYQQLPGTAPKLLIYADSHRPSGVPDRFSGSKSGTSASLAISGLRSEDEADYYCASWDSSLSGYVFGGGTKLTVLG
As to B1, the binding entry is “binds”.

B2: A4 antibody (human IgG1) (antibody, V domains shown)
VH: B1 VH with A33Y, V50A, S53H, D54N, S57N, Y68F, V99K, W100F, R101S, H102F
VL: B1 VL with N33Y, N35S, D52N, A90G, S91A, S97N
Regarding B2, the binding result was “binds”.
